From ChEMBL document CHEMBL3988442, “University of Dundee, Small-Polar-MMV Screening Library” (2021).

Values are the deposited “Percent Effect”, in %. The record does not define 0% and 100%; most values in the screen are far below 50% and negative numbers occur (in some assays of this library far below -100). Compounds were drawn at random from those tested, without regard to their results.

Mtb growth Cornell: 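Whole-cell assay for inhibitors of Mycobacterium tuberculosis growth, labelled Cornell in the record; the read-out is not stated. The concentration is filed as 10 mM, unlikely as a test dose, so the dose is not known. Higher means stronger inhibition (inferred from two other growth screens of the library). Size under these conditions: about 53,000 compounds, about 900 of them at 50% or above in at least one test.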
Mtb heat-shock: 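Assay on Mycobacterium tuberculosis, filed only as a heat shock assay from Cornell; the read-out is not stated. The concentration is filed as 10 mM, unlikely as a test dose, so the dose is not known. Higher reads as stronger inhibition (inferred: compounds with an IC50 in retests scored well above the rest). Of about 69,000 compounds tested this way, about 930 (1.4%) reached 50% or more in at least one test.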

SMILES: Cc1nc(NS(=O)(=O)c2cccc(F)c2C)no1
Mtb growth Cornell: 46.67%
Mtb heat-shock: 7.406%

SMILES: Fc1cc(CNc2nncs2)ccc1Cl
Mtb growth Cornell: 41.72%
Mtb heat-shock: -9.776%

SMILES: CCN1CCC(CC(=O)NC[C@H]2CCc3ccccc3O2)CC1
Mtb heat-shock: -3.438%

SMILES: Cn1ccnc1CN1CCC2(CC(=O)N(c3ccsc3)C2)C1.O=C(O)C(F)(F)F (stereo unspecified)
Mtb growth Cornell: 13.51%
Mtb heat-shock: -3.39%

SMILES: [H][C@@]12CCN(Cc3cnn(C)c3)C[C@@]1([H])O[C@H](c1nc(C)cs1)C2
Mtb growth Cornell: -8.834%
Mtb heat-shock: -2.328%

SMILES: O=C(NCc1ccccc1CN1CCC(O)CC1)Nc1ccccc1
Mtb growth Cornell: 9.167%
Mtb heat-shock: -15.52%

SMILES: CC(C)c1nc2cc(NC(=O)Cn3ccccc3=O)ccc2o1
Mtb heat-shock: 0.08974%

SMILES: COc1cccc(CN(C)S(=O)(=O)N2CCOCC2)c1
Mtb growth Cornell: 6.549%
Mtb heat-shock: -0.6057%

SMILES: [H][C@@]12CNC[C@]1(C(=O)O)CN(C(=O)Nc1ccccc1-c1ccccc1)C2
Mtb growth Cornell: 15.11%
Mtb heat-shock: 8.993%

SMILES: CN1CCCCC12Cc1ccccc1CN(C(=O)C1CCCC1)C2 (stereo unspecified)
Mtb heat-shock: -32.33%

SMILES: Cc1cc(Oc2ccccc2)nc(C2CCN(CCO)CC2)n1
Mtb growth Cornell: -6.081%
Mtb heat-shock: -5.719%

SMILES: CCn1c(C)cc(C(=O)N2CCCC(c3nc(C)no3)C2)c1C (stereo unspecified)
Mtb heat-shock: -1.373%

SMILES: CCc1ocnc1C(=O)N1CCCC1c1noc(C(C)C)n1 (stereo unspecified)
Mtb heat-shock: -6.911%

SMILES: COc1ccc2c(c1)C(NCCc1ccccn1)CCCO2 (stereo unspecified)
Mtb growth Cornell: 32.01%
Mtb heat-shock: -32.88%

SMILES: Cc1cnc(N2CCC(OCCN3CCCCC3)C2)nc1C (stereo unspecified)
Mtb growth Cornell: 6.981%
Mtb heat-shock: -24.44%

SMILES: Cc1ocnc1C(=O)N1CCCN(Cc2cscn2)CC1
Mtb heat-shock: -9.682%

SMILES: COc1cccc(Cn2ncnc2CNC(C)=O)c1
Mtb growth Cornell: -2.145%
Mtb heat-shock: -31.3%

SMILES: CCOc1ccc(NC(=O)N2CCC(n3cncn3)CC2)cc1Cl
Mtb growth Cornell: -30.56%
Mtb heat-shock: 18.83%

SMILES: Cc1cccc(C(=O)N2CCSCC2)c1NC(=O)c1ccsc1
Mtb heat-shock: 22.86%

SMILES: Fc1cccc(-c2nnn3c2COC(CNCc2ccsc2)C3)c1.O=C(O)C(F)(F)F (stereo unspecified)
Mtb growth Cornell: 24.45%
Mtb heat-shock: 11.17%

SMILES: O=C(O)C(F)(F)F.O=C(O)C(F)(F)F.[H][C@]12CCC[C@@]1(COCC1CCOCC1)CN(Cc1ccccn1)C2
Mtb growth Cornell: 16.19%
Mtb heat-shock: -7.885%

SMILES: COc1ccc(-c2nc3c([nH]2)CCNC3C(=O)O)c2ccc(C)nc12 (stereo unspecified)
Mtb growth Cornell: 7.547%
Mtb heat-shock: 5.236%

SMILES: CC(C)c1cc(NC(=O)c2cccnc2)[nH]n1
Mtb growth Cornell: -63.14%
Mtb heat-shock: -13.74%

SMILES: CCOC(=O)C1(O)CCN(C(=O)Nc2cccc(F)c2)CC1
Mtb growth Cornell: 22.47%
Mtb heat-shock: -35.4%

SMILES: Cc1nc(C)n(CC2CCCN(c3ncnc4c3CCC4)C2)n1 (stereo unspecified)
Mtb growth Cornell: -13.14%
Mtb heat-shock: 7.938%

Repeated from the top, 2 entries:

{"smiles": "Cc1nc(NS(=O)(=O)c2cccc(F)c2C)no1", "Mtb growth Cornell": 46.67, "Mtb heat-shock": 7.406}
{"smiles": "Fc1cc(CNc2nncs2)ccc1Cl", "Mtb growth Cornell": 41.72, "Mtb heat-shock": -9.776}